Assay results: PMC12693633 (Molecules, 2025)
Some peptides are written in HELM: one residue between dots, names in brackets for other building blocks, links after the first $.

Assay: general procedure: Fmoc solid-phase peptide synthesis
Settings: conjugation step

Substance	conjugation yield [%]
PEPTIDE1{[ac].[Ahx].[dE].[dE].[dE].[dE].[Ahx].P.A.A.N.V.G.[dR].[dR].[dR].[dR].[dR].[Ahx].[dK].[am]}|CHEM1{[NOTA-Bn-NHCS]}$PEPTIDE1,CHEM1,20:R3-1:R2$$$V2.0	32
PEPTIDE1{[ac].[Ahx].[dE].[dE].[dE].[dE].[dE].[dE].[dE].[dE].[dE].[Ahx].P.A.A.N.V.G.[dR].[dR].[dR].[dR].[dR].[dR].[dR].[dR].[dR].[Ahx].[dK].[am]}|CHEM1{[NOTA-Bn-NHCS]}$PEPTIDE1,CHEM1,29:R3-1:R2$$$V2.0	65
